Laboratory results from PubChem BioAssay AID2417 (National Center for Advancing Translational Sciences (NCATS), 2010).
Screen size: about 140,000 compounds; about 4,300 (3.1%) were called active. The shares of active, inactive and inconclusive entries below differ from those in the screen.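 Rule for the calls: active = readout at or below -70, meaning at least 70% loss of cells showing the perinucleolar compartment, a nuclear body marking cancer cells; inconclusive = readout between -30 and a set limit; inactive = the rest.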

Experiment: High Content Assay for Compounds that inhibit the Assembly of the Perinucleolar Compartment;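 note: plate controls were DMSO wells for no effect and camptothecin positive control wells for full effect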
Settings: PC3M PTB-GFP, PNC prevalence imaging, 16 h; at 10 µM; hits give low values
Procedure, shortened: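 Compounds are pinned in duplicate onto adhered PC3M cells stably expressing GFP-tagged PTB and incubated 16 h at 37 C. Cells are then fixed, nuclei stained with Hoechst, and PNC-positive cells counted.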

| SMILES | activity change (PNC), negative = inhibition |
| --- | --- |
| CCc1cccc2c(C=C(C#N)C#N)cn(CC(=O)N3CCCC3)c12 | inconclusive: -31.8% |
| CC1=CCC(C(=O)O)(C(=O)N/N=C/c2cccs2)C(c2ccc([N+](=O)[O-])cc2)C1 (stereo unspecified) | inconclusive: -34.9% |
| CCc1ccc(NC(=O)N(Cc2ccco2)C(C)c2cccs2)cc1 (stereo unspecified) | inconclusive: -43.7% |
| CCn1nc(C(=O)Nc2cccc(C(F)(F)F)c2)c(Cl)c1Cl | inactive: -20.3% |
| CC(C)N(C(=O)CSc1nnc(CNc2ccc(F)cc2)o1)C(C)C | active: -100% |
| CCOC(=O)C1=C(C)N=c2s/c(=C\c3ccc(OC(C)=O)cc3)c(=O)n2C1/C=C/c1ccccc1 (stereo unspecified) | inconclusive: -31.3% |
| COc1ccc(-c2[nH]ncc2-c2ccc(Cl)cc2)c(O)c1 | inconclusive: -44.2% |
| Cc1ccc(NC(=O)CSc2nnc(-c3n[nH]c4ccccc34)n2-c2ccccc2)c(C)c1 | inconclusive: -38.8% |
| CN1C(=O)c2cccc(NCCCN3C(=O)c4ccccc4C3=O)c2C1=O | inactive: -3.28% |
| COc1ccccc1CCNS(=O)(=O)c1c(C)n(C)c(=O)n(C)c1=O | inconclusive: -34.7% |
| Cc1ccc(NC(=O)c2scc3c2CCCC3)cc1 | inactive: 27.3% |
| CSc1c(-c2ccccc2)nc2ccc(Cl)cc2c1C(=O)O | inconclusive: -35.3% |
| Cn1ccnc1Sc1ccc(/C=N/NC(=O)c2ccccc2O)cc1[N+](=O)[O-] | inconclusive: -69.5% |
| CCOC(=O)COc1ccc(/C=C2\NC(=S)N(CC)C2=O)cc1 | inconclusive: -40.3% |
| O=C(O)C1CCCCC1C(=O)NCc1cn2ccccc2n1 (stereo unspecified) | inconclusive: -38.4% |
| Cc1ccc(NC(=O)Cn2cccc2C2=NC(c3ccccc3)CO2)cc1C (stereo unspecified) | inconclusive: -41.5% |
| CCOC(=O)c1ccc(-c2ccc(/C=N/NC(=O)CN(c3ccccc3Br)S(C)(=O)=O)o2)cc1 | inconclusive: -39.7% |
| CCn1c(=O)c(C(=O)Nc2ccsc2C(=O)OC)c(O)c2ccccc21 | inactive: -21.1% |
| Cc1cc(Nc2ccc(Br)cc2F)n2nc(C)nc2n1 | inconclusive: -35.9% |
| COCCn1c(SCc2nnc(-c3ccccc3)o2)nc2sc3c(c2c1=O)CCC3 | inactive: 51.3% |
| CCN(CC)S(=O)(=O)c1cc(C)c(C)cc1Br | inconclusive: -79% |
| CCOc1ccc(N/C=C/C(=O)c2ccccc2)c([N+](=O)[O-])c1 | inactive: 15.7% |
| CCN(CC)C(=O)c1ccc(/C=C/c2c[nH]c3ccccc23)[n+](C)c1 | inactive: 58.2% |

Ordered by count of non-hydrogen atoms (low to high): part of the list above

| SMILES | activity change (PNC), negative = inhibition |
| --- | --- |
| CCN(CC)S(=O)(=O)c1cc(C)c(C)cc1Br | inconclusive: -79% |
| Cc1ccc(NC(=O)c2scc3c2CCCC3)cc1 | inactive: 27.3% |
| Cc1cc(Nc2ccc(Br)cc2F)n2nc(C)nc2n1 | inconclusive: -35.9% |
| COc1ccc(-c2[nH]ncc2-c2ccc(Cl)cc2)c(O)c1 | inconclusive: -44.2% |
| CCn1nc(C(=O)Nc2cccc(C(F)(F)F)c2)c(Cl)c1Cl | inactive: -20.3% |
| CCOC(=O)COc1ccc(/C=C2\NC(=S)N(CC)C2=O)cc1 | inconclusive: -40.3% |
| CCc1ccc(NC(=O)N(Cc2ccco2)C(C)c2cccs2)cc1 (stereo unspecified) | inconclusive: -43.7% |
| CCn1c(=O)c(C(=O)Nc2ccsc2C(=O)OC)c(O)c2ccccc21 | inactive: -21.1% |
| CN1C(=O)c2cccc(NCCCN3C(=O)c4ccccc4C3=O)c2C1=O | inactive: -3.28% |
| Cn1ccnc1Sc1ccc(/C=N/NC(=O)c2ccccc2O)cc1[N+](=O)[O-] | inconclusive: -69.5% |
| CC1=CCC(C(=O)O)(C(=O)N/N=C/c2cccs2)C(c2ccc([N+](=O)[O-])cc2)C1 (stereo unspecified) | inconclusive: -34.9% |
| COCCn1c(SCc2nnc(-c3ccccc3)o2)nc2sc3c(c2c1=O)CCC3 | inactive: 51.3% |
| Cc1ccc(NC(=O)CSc2nnc(-c3n[nH]c4ccccc34)n2-c2ccccc2)c(C)c1 | inconclusive: -38.8% |
| CCOC(=O)c1ccc(-c2ccc(/C=N/NC(=O)CN(c3ccccc3Br)S(C)(=O)=O)o2)cc1 | inconclusive: -39.7% |
| CCOC(=O)C1=C(C)N=c2s/c(=C\c3ccc(OC(C)=O)cc3)c(=O)n2C1/C=C/c1ccccc1 (stereo unspecified) | inconclusive: -31.3% |

The results go on:

| SMILES | activity change (PNC), negative = inhibition |
| --- | --- |
| O=C(Nc1ccc(NC(=O)C2CC2)nc1)c1cccnc1 | inconclusive: -33.6% |
| CC(=O)Nc1nc(C2COc3ccccc3O2)cs1 (stereo unspecified) | inconclusive: -48.4% |
| CCOC(=O)N1CCN(C(=O)c2ccc3nc4ccc(Cl)cc4c(=O)n3c2)CC1 | inconclusive: -63.3% |
| COC(CNC(=O)c1ccc2c(c1)nc(C)n2-c1ccc(F)c(F)c1)OC | active: -91% |
| O=C(CN1C(=O)/C(=C/c2cccc(Br)c2)SC1=S)N1CCCC1 | inconclusive: -45.3% |
| CC(C)(C)OC(=O)N1CCOCCOCCNCCOCCOCC1 | inconclusive: -31.9% |
| COc1cc(CNCc2cccs2)ccc1OCC(=O)NC(C)(C)C | inconclusive: -59.5% |
| Cc1cc(NC(=O)c2ccccc2)sc1C | inactive: 0.0219% |
| Cc1cc(C)c(NC(=O)c2sc3nc4c(cc3c2N)C(=O)CC(C)(C)C4)c(C)c1 | inactive: 19.4% |
| CC1CCCCC1NC(=O)COC(=O)c1ccc(N(C)C)cc1 (stereo unspecified) | inactive: -18.7% |
| O=C(Nc1ccc2nc(-c3cccs3)c(-c3cccs3)nc2c1)NC1CC1 | inactive: -29% |
| COc1ccccc1N1CCN(C(=O)CSc2ncnc3scc(-c4ccccc4)c23)CC1 | inactive: 22.4% |
| CCCS(=O)(=O)c1c(S(=O)(=O)CCC)c2c(C)cccn2c1C(N)=O | inconclusive: -51.3% |
| CN(CC(O)COc1ccc(S(=O)(=O)N2CCOCC2)cc1)C1CCCCC1 (stereo unspecified) | inconclusive: -31.8% |
| O=C(CCC(=O)CCN1CCCCC1)CCN1CCCCC1 | inconclusive: -71.9% |
| O=C(OCCN1CCOCC1)c1ccc(OCCN2CCOCC2)cc1 | active: -84.6% |
| CCCC1=NN2C(=N)/C(=C\c3ccc(SCc4ccco4)o3)C(=O)N=C2S1 | inactive: -26.8% |
| COc1ccccc1-n1cnnc1SCC(=O)c1c[nH]c2ccccc12 | inactive: 6.7% |
| CC(=O)NC1=NN(C(C)=O)C(C)(c2ccc(Cl)s2)S1 (stereo unspecified) | inconclusive: -39.9% |
| COc1ccc(-c2cc(C3CC3)nc(SCC(=O)c3cccs3)c2C#N)cc1 | inconclusive: -54.5% |
| Cc1ccccc1Nc1nc(N)nc(CN(C)Cc2ccccc2Cl)n1 | inactive: -24.2% |
| CCCCSc1nnc(C)c(=O)[nH]1 | inconclusive: -61.1% |
| CCOC(=O)/C(C#N)=C/c1cn(CCC(=O)O)nc1-c1ccc(Cl)cc1 | inactive: -8.1% |

| SMILES | activity change (PNC), negative = inhibition |
| --- | --- |
| O=C(C(=O)N1CCc2ccccc2C1)N1CCc2ccccc2C1 | inconclusive: -38.9% |
| COc1ccccc1/C=C/CN1CCN(c2ccccc2)CC1 | active: -111% |
| c1ccc(-n2c(Sc3cnccn3)nnc2-c2cccs2)cc1 | inconclusive: -35.1% |
| CCOC(=O)C1CCN(c2c(NCCCN(CC)Cc3ccccc3)c(=O)c2=O)CC1 | inconclusive: -36.1% |
| O=C(Nc1ccc(Br)cc1)N1CCCCCCC1 | inconclusive: -44.2% |
| CC(C)Nc1nc(NC(C)C)nc(N(C#N)CCOc2ccc(Cl)cc2Cl)n1 | inactive: -13.9% |
| Cn1c(=O)c2c(nc(Br)n2Cc2c(F)cccc2Cl)n(C)c1=O | inconclusive: -75.8% |
| CCCc1ccc(OC(=O)c2cccs2)cc1 | inconclusive: -39.1% |
| O=S1(=O)c2cccc3cccc(c23)N1Cc1nnc(-c2ccccc2Br)o1 | inconclusive: -40.6% |
| O=C(NC1CCCC1)c1ccc2nc[nH]c2c1 | inactive: 2.43% |
| O=C(c1ccc(F)cc1)c1c[nH]c(C(=O)NCc2cccnc2)c1 | inconclusive: -34% |
| Cc1ccc(NS(=O)(=O)c2ccc(C)c(C(=O)N3CCN(C)CC3)c2)cc1 | inactive: 9.46% |
| COc1ccc(CN2C(=O)/C(=C/c3ccncc3)SC2=S)cc1 | inconclusive: -39.3% |
| CC(=O)c1cccc(NC(=O)c2onc(C)c2Cl)c1 | inconclusive: -42.9% |
| COc1ccc(Cl)cc1NC(=O)N1CCN(C2CCCCC2)CC1 | active: -88.2% |
| O=C(N/N=C/c1c(Nc2cccc(C(F)(F)F)c2)nc2ccccn2c1=O)c1ccccc1 | inactive: 14.7% |
| NC(N)=N/N=C/c1c(Cl)cccc1Cl | inconclusive: -50.7% |
| O=C(O)C1Cc2ccccc2CN1C(=O)c1ccccc1 (stereo unspecified) | active: -96.9% |
| COc1ccc(CCn2c(-c3ccco3)nc3nc4ccccc4nc32)cc1OC | inconclusive: -30.2% |
| COCCOC(=O)c1c(C)n(C)c2ccc(OC(=O)C3CC3)cc12 | inactive: -25.7% |
| c1ccc(CCc2nn3c(-c4ccncc4)nnc3s2)cc1 | inconclusive: -65% |
| Cc1onc(-c2ccccc2Cl)c1C(=O)Nc1sc2c(c1C(N)=O)CCC(C)C2 (stereo unspecified) | inconclusive: -77.7% |
| O=C(Nc1ccc(C(O)(C(F)(F)F)C(F)(F)F)cc1)c1ccc(Cl)c([N+](=O)[O-])c1 | inactive: -20.7% |

| SMILES | activity change (PNC), negative = inhibition |
| --- | --- |
| COc1ccc(OCCSc2nc(N)cc(N)n2)cc1 | inactive: 7.73% |
| Cc1ccccc1NC(=S)NCCc1ccccc1 | inconclusive: -41.1% |
| O=C(CNS(=O)(=O)c1cccc(C(F)(F)F)c1)Nc1ccccc1F | inconclusive: -30.2% |
| CNC(=O)NC(=O)C(OC(=O)c1cccc(S(=O)(=O)N2CCCCC2)c1)c1ccccc1 (stereo unspecified) | inactive: -3.58% |
| COc1ccccc1NC(=O)c1cn(C)c(=O)c2cc(OC)c(OC)cc12 | inconclusive: -45.7% |
| CCC(C)N1C(=O)/C(=C/c2c(NCCCOC(C)C)nc3c(C)cccn3c2=O)SC1=S (stereo unspecified) | inactive: 15.8% |
| CN(NS(=O)(=O)c1ccccc1)c1nc2ccccc2nc1C(F)(F)F | inactive: 29.7% |
| O=c1[nH]c(=O)n([C@H]2C[C@H](O)[C@@H](CO)O2)cc1F | inactive: 22.5% |
| Cc1ccccc1-c1ccc(C(=O)Nc2cccc(F)c2)o1 | inactive: 49.1% |
| COc1ccc(/C=C/C(=O)NCC(=O)N/N=C/c2cc(Br)ccc2OC)cc1 | inconclusive: -37.8% |
| COc1ccc(NC(=O)CCCN2C(=O)C3C4C=CC(C4)C3C2=O)c(OC)c1 (stereo unspecified) | inconclusive: -31.8% |
| CCOC(=O)CCN(Cc1sccc1C)S(=O)(=O)c1ccc(F)cc1 | inconclusive: -42% |
| O=C1c2ccccc2C(=O)N1CCCc1nc(-c2cccnc2)no1 | inconclusive: -64.6% |
| COc1ccc(CN(C2CCCC2)S(=O)(=O)c2ccc(-n3cnnn3)c(OC)c2)cc1OC | inconclusive: -69.1% |
| CS(=O)(=O)Nc1ccccc1C(=O)NC1CC2CCC1C2 (stereo unspecified) | inconclusive: -58.4% |
| CCCCC(=O)Nc1ccc(N2CCN(C(=O)CC)CC2)cc1 | inactive: 4.33% |
| CC(=O)c1ccccc1OCCn1nnc(-c2ccc(C)cc2)n1 | inactive: 223% |
| O=C(CN1CC(=O)Oc2ccccc21)NCc1ccco1 | inactive: -20% |
| CN(C)c1[nH]c(=O)c(C#N)c2c1CCN2Cc1ccccc1 | inactive: -12.2% |
| CCOC(=O)c1cc2cc(OC)ccc2nc1C | inconclusive: -30.9% |
| Cc1nn(Cc2ccccc2Cl)c(C)c1C(=O)Nc1nnc(C2CC2)s1 | active: -96.7% |
| CC(=O)/C(C#N)=C1\NC(=O)C(Cc2ccccc2)S1 (stereo unspecified) | inconclusive: -50.4% |
